Laboratory results: the supplement of paper PMC12067093, “Discovery and optimisation of a covalent ligand for TRIM25 and its application to targeted protein ubiquitination” (Chemical Science, 2025)
This is one part of the list.

Amino acid sequences for entries named in this document (tags omitted). A change or cut given only in a name is not applied to a line headed by its entry.
UniProt Q9Y2J8, whole entry, looked up: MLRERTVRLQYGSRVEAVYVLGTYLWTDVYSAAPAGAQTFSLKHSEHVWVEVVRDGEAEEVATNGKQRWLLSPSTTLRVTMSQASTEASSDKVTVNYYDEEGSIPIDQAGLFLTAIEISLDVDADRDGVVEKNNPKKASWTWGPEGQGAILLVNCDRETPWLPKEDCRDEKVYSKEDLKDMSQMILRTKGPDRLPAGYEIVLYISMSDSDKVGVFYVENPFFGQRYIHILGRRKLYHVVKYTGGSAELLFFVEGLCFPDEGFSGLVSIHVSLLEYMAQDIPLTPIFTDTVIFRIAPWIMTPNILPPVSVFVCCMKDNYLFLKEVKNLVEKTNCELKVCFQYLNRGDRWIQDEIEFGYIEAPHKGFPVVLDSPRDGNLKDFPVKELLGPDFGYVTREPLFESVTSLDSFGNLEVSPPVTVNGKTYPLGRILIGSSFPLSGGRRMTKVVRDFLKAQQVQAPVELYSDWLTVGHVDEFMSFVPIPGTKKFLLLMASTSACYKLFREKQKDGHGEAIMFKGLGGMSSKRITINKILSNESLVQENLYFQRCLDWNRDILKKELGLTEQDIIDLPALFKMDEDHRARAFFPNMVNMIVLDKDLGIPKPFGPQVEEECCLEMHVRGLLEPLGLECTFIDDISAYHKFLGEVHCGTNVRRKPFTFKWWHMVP
UniProt Q9H074: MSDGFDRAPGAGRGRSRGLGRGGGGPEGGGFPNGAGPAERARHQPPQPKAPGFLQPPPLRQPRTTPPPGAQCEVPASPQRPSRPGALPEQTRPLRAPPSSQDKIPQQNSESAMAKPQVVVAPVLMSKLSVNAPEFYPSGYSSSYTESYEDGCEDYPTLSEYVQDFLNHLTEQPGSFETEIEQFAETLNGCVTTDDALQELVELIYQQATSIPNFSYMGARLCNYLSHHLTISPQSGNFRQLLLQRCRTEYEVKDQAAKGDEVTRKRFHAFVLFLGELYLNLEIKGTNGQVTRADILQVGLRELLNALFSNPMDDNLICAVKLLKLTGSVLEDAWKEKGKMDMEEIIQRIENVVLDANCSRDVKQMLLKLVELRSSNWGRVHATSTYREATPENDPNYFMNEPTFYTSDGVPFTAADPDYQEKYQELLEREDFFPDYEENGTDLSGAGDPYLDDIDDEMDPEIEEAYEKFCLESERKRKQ
UniProt Q9H4B0: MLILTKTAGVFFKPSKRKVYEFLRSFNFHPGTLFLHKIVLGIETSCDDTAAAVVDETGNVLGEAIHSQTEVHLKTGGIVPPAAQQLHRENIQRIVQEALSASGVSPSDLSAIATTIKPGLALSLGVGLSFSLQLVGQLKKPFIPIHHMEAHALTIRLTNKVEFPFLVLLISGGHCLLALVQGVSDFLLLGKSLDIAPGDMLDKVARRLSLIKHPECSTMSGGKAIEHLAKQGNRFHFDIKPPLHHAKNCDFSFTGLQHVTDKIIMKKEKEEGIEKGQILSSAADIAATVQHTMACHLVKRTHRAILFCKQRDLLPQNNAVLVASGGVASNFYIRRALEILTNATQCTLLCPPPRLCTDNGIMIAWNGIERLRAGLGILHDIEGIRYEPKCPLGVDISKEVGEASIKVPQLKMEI
UniProt Q86W56: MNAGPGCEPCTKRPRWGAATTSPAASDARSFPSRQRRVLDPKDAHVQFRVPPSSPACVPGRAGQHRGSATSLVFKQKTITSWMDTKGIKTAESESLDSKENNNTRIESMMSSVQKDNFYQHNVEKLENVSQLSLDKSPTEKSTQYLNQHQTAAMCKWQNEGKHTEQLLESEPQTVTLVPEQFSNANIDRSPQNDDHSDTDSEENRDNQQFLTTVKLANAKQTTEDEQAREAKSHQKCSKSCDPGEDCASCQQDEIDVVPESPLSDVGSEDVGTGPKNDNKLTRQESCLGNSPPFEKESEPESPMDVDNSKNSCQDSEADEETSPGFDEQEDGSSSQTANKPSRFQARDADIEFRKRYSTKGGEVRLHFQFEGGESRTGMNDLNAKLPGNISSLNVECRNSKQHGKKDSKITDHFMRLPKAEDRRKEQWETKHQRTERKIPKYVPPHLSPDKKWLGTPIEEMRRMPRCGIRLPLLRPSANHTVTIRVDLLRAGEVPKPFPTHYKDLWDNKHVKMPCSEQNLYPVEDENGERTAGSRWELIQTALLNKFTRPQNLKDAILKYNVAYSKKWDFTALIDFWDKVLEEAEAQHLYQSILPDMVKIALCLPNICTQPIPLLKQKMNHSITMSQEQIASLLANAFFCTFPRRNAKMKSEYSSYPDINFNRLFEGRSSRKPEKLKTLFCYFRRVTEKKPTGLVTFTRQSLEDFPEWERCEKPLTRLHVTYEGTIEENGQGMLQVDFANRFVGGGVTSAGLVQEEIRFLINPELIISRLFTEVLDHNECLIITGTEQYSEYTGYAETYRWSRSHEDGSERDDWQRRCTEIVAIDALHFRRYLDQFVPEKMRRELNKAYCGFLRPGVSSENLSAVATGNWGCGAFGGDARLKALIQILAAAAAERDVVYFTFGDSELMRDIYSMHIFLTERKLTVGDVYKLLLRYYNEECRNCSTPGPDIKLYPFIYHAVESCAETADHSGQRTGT
UniProt P22234: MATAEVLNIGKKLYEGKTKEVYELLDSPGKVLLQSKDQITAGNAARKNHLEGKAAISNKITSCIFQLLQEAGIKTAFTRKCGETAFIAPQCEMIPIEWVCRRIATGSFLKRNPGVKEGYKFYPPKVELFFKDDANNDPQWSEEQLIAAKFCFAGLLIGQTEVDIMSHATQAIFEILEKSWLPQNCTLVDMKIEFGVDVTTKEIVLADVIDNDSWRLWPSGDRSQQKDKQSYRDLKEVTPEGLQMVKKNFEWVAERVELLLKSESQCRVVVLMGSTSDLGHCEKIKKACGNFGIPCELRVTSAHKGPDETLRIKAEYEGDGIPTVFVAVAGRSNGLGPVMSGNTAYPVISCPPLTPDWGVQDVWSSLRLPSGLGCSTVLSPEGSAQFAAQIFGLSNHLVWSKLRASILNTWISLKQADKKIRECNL
UniProt Q9NWT1: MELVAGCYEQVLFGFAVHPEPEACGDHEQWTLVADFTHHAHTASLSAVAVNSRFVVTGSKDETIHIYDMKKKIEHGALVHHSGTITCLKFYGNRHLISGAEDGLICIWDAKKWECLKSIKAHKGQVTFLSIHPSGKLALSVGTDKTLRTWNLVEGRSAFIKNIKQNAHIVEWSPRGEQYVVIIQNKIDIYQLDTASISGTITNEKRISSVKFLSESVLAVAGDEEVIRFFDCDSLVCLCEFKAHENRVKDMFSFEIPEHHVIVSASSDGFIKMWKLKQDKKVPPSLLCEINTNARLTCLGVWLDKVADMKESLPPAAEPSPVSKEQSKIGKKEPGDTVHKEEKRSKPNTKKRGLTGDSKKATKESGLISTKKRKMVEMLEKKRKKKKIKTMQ
UniProt Q92882: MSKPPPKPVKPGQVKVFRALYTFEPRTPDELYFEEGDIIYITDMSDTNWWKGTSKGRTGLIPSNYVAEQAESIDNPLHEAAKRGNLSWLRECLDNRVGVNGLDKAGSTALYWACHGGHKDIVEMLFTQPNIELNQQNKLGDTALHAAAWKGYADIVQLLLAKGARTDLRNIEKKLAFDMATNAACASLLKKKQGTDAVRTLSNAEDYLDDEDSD
UniProt Q504Q3: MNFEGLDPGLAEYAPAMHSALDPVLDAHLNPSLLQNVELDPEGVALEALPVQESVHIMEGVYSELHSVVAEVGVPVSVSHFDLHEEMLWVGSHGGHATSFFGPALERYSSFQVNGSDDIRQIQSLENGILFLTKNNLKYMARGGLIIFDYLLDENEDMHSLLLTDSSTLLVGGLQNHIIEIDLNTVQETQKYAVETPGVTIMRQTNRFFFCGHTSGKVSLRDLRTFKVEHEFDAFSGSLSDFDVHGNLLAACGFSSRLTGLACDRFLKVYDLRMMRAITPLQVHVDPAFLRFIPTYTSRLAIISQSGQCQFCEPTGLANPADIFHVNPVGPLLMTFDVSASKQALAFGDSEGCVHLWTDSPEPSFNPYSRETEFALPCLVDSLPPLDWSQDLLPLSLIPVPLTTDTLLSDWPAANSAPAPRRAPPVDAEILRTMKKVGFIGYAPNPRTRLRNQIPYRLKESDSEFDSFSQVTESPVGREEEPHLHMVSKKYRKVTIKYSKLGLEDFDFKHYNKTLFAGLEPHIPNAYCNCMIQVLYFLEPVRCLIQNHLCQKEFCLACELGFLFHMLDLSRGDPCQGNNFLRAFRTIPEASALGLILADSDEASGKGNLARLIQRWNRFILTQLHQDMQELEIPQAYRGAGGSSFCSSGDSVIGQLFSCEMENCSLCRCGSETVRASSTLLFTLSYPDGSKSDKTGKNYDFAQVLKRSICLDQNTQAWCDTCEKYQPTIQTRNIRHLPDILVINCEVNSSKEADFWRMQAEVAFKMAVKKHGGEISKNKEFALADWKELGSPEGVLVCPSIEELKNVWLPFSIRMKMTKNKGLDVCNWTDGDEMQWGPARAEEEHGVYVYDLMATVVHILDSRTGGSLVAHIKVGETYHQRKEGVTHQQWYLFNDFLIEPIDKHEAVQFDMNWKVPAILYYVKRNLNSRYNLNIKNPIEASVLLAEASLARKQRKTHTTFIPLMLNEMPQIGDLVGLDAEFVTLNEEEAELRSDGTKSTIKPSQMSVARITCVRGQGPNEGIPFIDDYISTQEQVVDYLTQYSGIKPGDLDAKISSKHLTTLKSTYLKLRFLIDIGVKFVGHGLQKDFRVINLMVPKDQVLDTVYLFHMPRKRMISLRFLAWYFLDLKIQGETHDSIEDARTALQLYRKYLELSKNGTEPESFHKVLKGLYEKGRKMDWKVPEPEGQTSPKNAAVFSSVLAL
UniProt Q86U42: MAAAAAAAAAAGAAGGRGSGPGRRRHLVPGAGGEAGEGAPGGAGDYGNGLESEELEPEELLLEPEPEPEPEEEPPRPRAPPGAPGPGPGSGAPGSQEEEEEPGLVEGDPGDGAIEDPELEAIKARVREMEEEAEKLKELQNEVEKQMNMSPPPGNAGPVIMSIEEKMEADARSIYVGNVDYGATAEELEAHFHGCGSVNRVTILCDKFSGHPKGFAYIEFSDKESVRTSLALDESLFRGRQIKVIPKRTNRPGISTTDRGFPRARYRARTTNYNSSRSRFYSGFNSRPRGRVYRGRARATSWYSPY
UniProt Q15102: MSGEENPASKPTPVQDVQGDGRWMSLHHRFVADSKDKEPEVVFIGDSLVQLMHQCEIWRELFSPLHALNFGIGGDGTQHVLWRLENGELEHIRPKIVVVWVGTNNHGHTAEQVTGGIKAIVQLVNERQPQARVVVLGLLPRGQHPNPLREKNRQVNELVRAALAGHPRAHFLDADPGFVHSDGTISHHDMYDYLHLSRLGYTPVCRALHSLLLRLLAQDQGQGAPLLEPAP
UniProt O14841: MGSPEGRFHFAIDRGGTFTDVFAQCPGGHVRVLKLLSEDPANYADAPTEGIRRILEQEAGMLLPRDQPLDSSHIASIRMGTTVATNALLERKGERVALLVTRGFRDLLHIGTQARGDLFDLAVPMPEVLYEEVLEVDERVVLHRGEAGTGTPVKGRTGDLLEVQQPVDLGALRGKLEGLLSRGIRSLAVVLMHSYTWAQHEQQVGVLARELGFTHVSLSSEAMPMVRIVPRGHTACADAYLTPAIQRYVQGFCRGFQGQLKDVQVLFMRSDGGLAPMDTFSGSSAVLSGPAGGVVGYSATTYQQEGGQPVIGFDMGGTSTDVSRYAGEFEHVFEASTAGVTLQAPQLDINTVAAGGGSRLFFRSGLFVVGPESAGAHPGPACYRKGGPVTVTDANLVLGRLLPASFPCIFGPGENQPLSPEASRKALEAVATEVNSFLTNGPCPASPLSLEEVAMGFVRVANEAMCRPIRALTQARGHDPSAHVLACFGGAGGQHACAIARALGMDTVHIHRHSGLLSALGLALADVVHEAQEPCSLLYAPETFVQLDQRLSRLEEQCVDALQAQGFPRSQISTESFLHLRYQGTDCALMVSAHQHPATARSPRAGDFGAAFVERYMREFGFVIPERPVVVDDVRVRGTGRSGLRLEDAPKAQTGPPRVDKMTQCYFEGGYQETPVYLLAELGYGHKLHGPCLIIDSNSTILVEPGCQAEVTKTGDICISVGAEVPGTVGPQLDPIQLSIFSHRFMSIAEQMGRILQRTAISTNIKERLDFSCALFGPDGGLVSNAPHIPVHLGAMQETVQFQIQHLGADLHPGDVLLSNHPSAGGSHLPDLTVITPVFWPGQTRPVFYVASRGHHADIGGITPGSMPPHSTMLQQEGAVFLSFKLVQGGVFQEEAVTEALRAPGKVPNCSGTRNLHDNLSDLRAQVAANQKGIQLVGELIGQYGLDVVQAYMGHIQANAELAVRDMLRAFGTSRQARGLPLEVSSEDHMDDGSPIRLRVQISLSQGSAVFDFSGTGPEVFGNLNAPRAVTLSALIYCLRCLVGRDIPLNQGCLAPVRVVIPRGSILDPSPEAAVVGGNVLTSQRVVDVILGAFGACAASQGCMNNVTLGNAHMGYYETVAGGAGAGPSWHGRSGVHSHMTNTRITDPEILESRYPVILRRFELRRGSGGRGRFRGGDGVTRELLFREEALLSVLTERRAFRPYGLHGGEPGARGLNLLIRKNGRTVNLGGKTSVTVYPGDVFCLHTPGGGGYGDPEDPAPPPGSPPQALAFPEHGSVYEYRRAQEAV

Compound: Cc1cc(ccc1-c1ccccc1)C(=O)N1CCCN(CC1)C(=O)CCl [compound 10]
Test: probe-labelled cysteine peptide fold change vs DMSO (competition) (log2 fold change); higher = less target engagement (more negative = stronger competition)
Settings: THP-1, incubation time: 4 h
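Further: competitive profiling in live THP-1 cells: cysteine peptides tagged with an iodoacetamide desthiobiotin (IA-DTB) probe, intensity after compound treatment relative to DMSO-treated cells.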

Target	probe-labelled cysteine peptide fold change (10 µM)	probe-labelled cysteine peptide fold change (50 µM)
PADI2_Q9Y2J8_612_PFGPQVEEECCLEMHVR (UniProt Q9Y2J8)	-0.0223	0.222
P3H1_Q32P28_282_QNCVTELASHPSR (UniProt Q32P28)	0.116	0.054
PAIP1_Q9H074_358_GKMDMEEIIQRIENVVLDANCSR (UniProt Q9H074)	-0.00534	-0.488
OSGEPL1_Q9H4B0_216_HPECSTMSGGK (UniProt Q9H4B0)	-0.0466	-0.31
OS9_Q13438_181_CDLNGRPR (UniProt Q13438)	-0.00915	0.253
PARG_Q86W56_608_IALCLPNICTQPIPLLK (UniProt Q86W56)	0.177	-0.0522
ORC1_Q13415_806_SGLEEATFQQIYSQHVALCR (UniProt Q13415)	0.111	-0.0714
OSBP_P22059_803_QDWSSCPDIF (UniProt P22059)	-0.24	0.348
OSBPL1A_Q9BXW6_746_PCGLFGK (UniProt Q9BXW6)	0.0257	0.329
OSGEPL1_Q9H4B0_249_NCDFSFTGLQHVTDK (UniProt Q9H4B0)	-0.0534	-0.189
PAICS_P22234_81_KCGETAFIAPQCEMIPIEWVCR (UniProt P22234)	0.0114	-0.169
PAK1IP1_Q9NWT1_106_HLISGAEDGLICIWDAK (UniProt Q9NWT1)	-0.0234	0.336
P3H1_Q32P28_591_DDSHPVHVDNCILNAETLVCVK (UniProt Q32P28)	0.107	-0.154
ORC6_Q9Y5N6_88_SFECLLGLNSNIGIR (UniProt Q9Y5N6)	-0.00209	-0.675
PARP12_Q9H0J9_195_FGTSCK (UniProt Q9H0J9)	-0.0288	-0.0533
OSTF1_Q92882_185_LAFDMATNAACASLLK (UniProt Q92882)	0.12	0.142
OSBPL1A_Q9BXW6_412_ETCVALTDCLNLFTK (UniProt Q9BXW6)	0.181	0.0122
PAN2_Q504Q3_550_CLIQNHLCQK (UniProt Q504Q3)	0.161	0.324
OSTF1_Q92882_114_AGSTALYWACHGGHK (UniProt Q92882)	0.145	0.00992
PABPN1_Q86U42_195_SIYVGNVDYGATAEELEAHFHGCGSVNR (UniProt Q86U42)	0.203	0.112
PAFAH1B3_Q15102_55_DKEPEVVFIGDSLVQLMHQCEIWR (UniProt Q15102)	0.27	0.185

Single values from above:
probe-labelled cysteine peptide fold change (10 µM), PADI2_Q9Y2J8_612_PFGPQVEEECCLEMHVR (UniProt Q9Y2J8) is entered as -0.0223
probe-labelled cysteine peptide fold change (50 µM), OSGEPL1_Q9H4B0_249_NCDFSFTGLQHVTDK (UniProt Q9H4B0) is entered as -0.189
probe-labelled cysteine peptide fold change (50 µM), PARG_Q86W56_608_IALCLPNICTQPIPLLK (UniProt Q86W56) is entered as -0.0522

Later entries:

Target	probe-labelled cysteine peptide fold change (10 µM)	probe-labelled cysteine peptide fold change (50 µM)
OPLAH_O14841_253_YVQGFCR (UniProt O14841)	0.036	-0.112
OSGEP_Q9NPF4_110_PLVGVNHCIGHIEMGR (UniProt Q9NPF4)	0.017	0.107
OSBPL8_Q9BZF1_575_LTFLNRGEDYVMTMPYAHCK (UniProt Q9BZF1)	-0.113	-0.211
PAPSS1_O43252_290+295_EREYLQCLHFDCLLDGGVINLSVPIVLTATHEDK (UniProt O43252)	0.105	-0.159
PAN2_Q504Q3_798_ELGSPEGVLVCPSIEELK (UniProt Q504Q3)	-0.459	-0.933
PAK1IP1_Q9NWT1_237_FFDCDSLVCLCEFK (UniProt Q9NWT1)	0.0404	0.546
PARP1_P09874_845_NTHATTHNAYDLEVIDIFKIEREGECQR (UniProt P09874)	-0.189	-0.814
PARN_O95453_302_LVIGHNMLLDVMHTVHQFYCPLPADLSEFK (UniProt O95453)	0.0951	0.0864
PADI2_Q9Y2J8_629_GLLEPLGLECTFIDDISAYHK (UniProt Q9Y2J8)	0.0564	-0.0414
OSBPL1A_Q9BXW6_710+711_GTITLELLEHNEAYTWTNPTCCVHNIIVGK (UniProt Q9BXW6)	-0.32	-0.285
PALD1_Q9ULE6_631_IPMPDFCAPREEDFDQLLEALR (UniProt Q9ULE6)	0.0385	0.0649
PAPSS1_O43252_127_LFADAGLVCITSFISPYTQDR (UniProt O43252)	0.171	0.448
OPLAH_O14841_408_LLPASFPCIFGPGENQPLSPEASRK (UniProt O14841)	-0.098	0.0583
PARG_Q86W56_397_LPGNISSLNVECR (UniProt Q86W56)	0.00793	-0.125
P4HA1_P13674_293_QKYEMLCR (UniProt P13674)	-0.00555	-0.202
PAIP1_Q9H074_222_LCNYLSHHLTISPQSGNFR (UniProt Q9H074)	0.322	0.132
PAPSS1_O43252_212_TDSCDVNDCVQQVVELLQER (UniProt O43252)	0.218	0.0226
OTUD7B_Q6GQQ9_280_MHLGTNGANCGGVESSEEPVYESLEEFHVFVLAHVLR (UniProt Q6GQQ9)	0.563	0.225
ORC3_Q9UBD5_363_INFLSNNQCENIR (UniProt Q9UBD5)	-0.0787	-0.0975
PAICS_P22234_81_CGETAFIAPQCEMIPIEWVCR (UniProt P22234)	0.0898	-0.252
